In PubChem BioAssay AID238 (DTP/NCI, 2004):
The list shows only some results of the screen, not a fair sample: it gathers some chemical classes. Other doses and runs of a compound may be missing. T/C is the treated group as % of the vehicle group. For survival time, the PubChem record calls one and a half times the control and up active, and a quarter to a half above the control has no call in these data; cut-offs in other NCI protocols can differ. Some entries show no survivor count and are marked so; the dose need not have been tolerated. Schedule codes are those of the source, read here as Q, the interval in days (D) or hours (H), X, the number of doses. Some entries were tested several times; the values are given in rising order.

Test system: CAF1 mice, leiomyosarcoma No.2 ip, survival T/C%
Assay: NCI In Vivo Anticancer Drug Screen. Data for tumor model Leiomyosarcoma (No. 2) (intraperitoneal) in CAF1 mice
Conditions: T/C endpoint: mean survival time, schedule: Q01DX010 (ip), vehicle: saline, higher T/C = longer survival
Experimental: The antitumor activity of compounds was measured in mice bearing transplantable tumors. Survival or tumor size were measured and the results are expressed as the measurement made in the treated group (T) divided by the measurement made in the vehicle treated control group (C). The tumor model used in this assay is Leiomyosarcoma (No. 2) (intraperitoneal) in CAF1 mice

## CN(CCCl)CCCl
dose: 0.13 mg/kg/injection
  T/C: 111 [survivor count not shown] and 146 % of control [survivor count not shown]
dose: 0.25 mg/kg/injection
  T/C: 86 [survivor count not shown] and 253 % of control [survivor count not shown]
dose: 0.5 mg/kg/injection
  T/C: 96 % of control [survivor count not shown]
